# Results: the supplement of paper PMC8728848
# The list shows a part of the results.
# Columns and labels:
# Experiment in all cases: glycan array binding signal (z-score within array); higher = stronger binding
# Details in all cases: glycan notation: IUPAC condensed, linker removed
# [1] = molecular target: Gal(b1-3)[Fuc(a1-4)]GlcNAc(b1-3)Gal(b1-4)GlcNAc
# Outline: (§1)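 Glycan array binding is given as a within-array Z-score, which can be read as non-binding when negative. The arrays, 3228 of them, came from the Consortium for Functional Glycomics database and were retained only where the protein sequence was available. Z-scores were averaged across arrays of the same protein sequence at different concentrations or buffers and across linkers.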
# [2] = molecular target: Gal(b1-3)[Fuc(a1-4)]GlcNAc(b1-3)Gal(b1-4)[Fuc(a1-3)]GlcNAc
# Outline: as §1
# [3] = molecular target: Gal(b1-3)[GlcNAc(b1-6)]GalNAc
# Outline: as §1
# [4] = molecular target: Gal(b1-3)[Neu5Ac(a2-6)]GalNAc
# Outline: as §1
# [5] = molecular target: Gal(b1-3)[Neu5Ac(a2-6)]GlcNAc(b1-6)Gal(b1-4)Glc
# Outline: as §1
# [6] = molecular target: Gal(b1-3)[Neu5Ac(b2-6)]GalNAc
# Outline: as §1
# Gal(b1-4)Gal = molecular target: Gal(b1-4)Gal
# Outline: as §1
# [7] = molecular target: Gal(b1-4)GalNAc(a1-3)[Fuc(a1-2)]Gal(b1-4)GlcNAc
# Outline: as §1
# [8] = molecular target: Gal(b1-4)GalNAc(b1-3)[Fuc(a1-2)]Gal(b1-4)GlcNAc
# Outline: as §1
# Gal(b1-4)Glc = molecular target: Gal(b1-4)Glc
# Outline: as §1
# Gal(b1-4)Glc6S = molecular target: Gal(b1-4)Glc6S
# Outline: as §1
# Gal(b1-4)GlcNAc = molecular target: Gal(b1-4)GlcNAc
# Outline: as §1
# [9] = molecular target: Gal(b1-4)GlcNAc(a1-6)Gal(b1-4)GlcNAc
# Outline: as §1
# Gal(b1-4)GlcNAc(b1-2)Man = molecular target: Gal(b1-4)GlcNAc(b1-2)Man
# Outline: as §1
# [10] = molecular target: Gal(b1-4)GlcNAc(b1-2)Man(a1-3)Man(b1-4)GlcNAc(b1-4)GlcNAc
# Outline: as §1
# [11] = molecular target: Gal(b1-4)GlcNAc(b1-2)Man(a1-3)[Gal(b1-4)GlcNAc(b1-2)Man(a1-6)]Man(b1-4)GlcNAc(b1-4)GlcNAc
# Outline: as §1
# [12] = molecular target: Gal(b1-4)GlcNAc(b1-2)Man(a1-3)[Gal(b1-4)GlcNAc(b1-2)Man(a1-6)]Man(b1-4)GlcNAc(b1-4)[Fuc(a1-6)]GlcNAc
# Outline: as §1
# [13] = molecular target: Gal(b1-4)GlcNAc(b1-2)Man(a1-3)[Gal(b1-4)GlcNAc(b1-2)][GlcNAc(b1-4)]Man(b1-4)GlcNAc(b1-4)GlcNAc
# Outline: as §1
# [14] = molecular target: Gal(b1-4)GlcNAc(b1-2)Man(a1-3)[GlcNAc(b1-2)Man(a1-6)]Man(b1-4)GlcNAc(b1-4)GlcNAc
# Outline: as §1
# [15] = molecular target: Gal(b1-4)GlcNAc(b1-2)Man(a1-3)[Man(a1-6)]Man(b1-4)GlcNAc(b1-4)GlcNAc
# Outline: as §1
# [16] = molecular target: Gal(b1-4)GlcNAc(b1-2)Man(a1-6)Man(b1-4)GlcNAc(b1-4)GlcNAc
# Outline: as §1
# [17] = molecular target: Gal(b1-4)GlcNAc(b1-2)Man(a1-6)[GlcNAc(b1-2)Man(a1-3)]Man(b1-4)GlcNAc(b1-4)GlcNAc
# Outline: as §1
# [18] = molecular target: Gal(b1-4)GlcNAc(b1-2)Man(a1-6)[Man(a1-3)]Man(b1-4)GlcNAc(b1-4)GlcNAc
# Outline: as §1
# [19] = molecular target: Gal(b1-4)GlcNAc(b1-2)[Gal(b1-4)GlcNAc(b1-4)]Man(a1-3)[Gal(b1-4)GlcNAc(b1-2)Man(a1-6)]Man(b1-4)GlcNAc(b1-4)GlcNAc
# Outline: as §1
# [20] = molecular target: Gal(b1-4)GlcNAc(b1-2)[Gal(b1-4)GlcNAc(b1-4)]Man(a1-3)[Gal(b1-4)GlcNAc(b1-2)[Gal(b1-4)GlcNAc(b1-6)]Man(a1-6)]Man(b1-4)GlcNAc(b1-4)GlcNAc
# Outline: as §1
# [21] = molecular target: Gal(b1-4)GlcNAc(b1-2)[Gal(b1-4)GlcNAc(b1-4)]Man(a1-3)[GlcNAc(b1-4)][Gal(b1-4)GlcNAc(b1-2)Man(a1-6)]Man(b1-4)GlcNAc(b1-4)GlcNAc
# Outline: as §1
# [22] = molecular target: Gal(b1-4)GlcNAc(b1-2)[Gal(b1-4)GlcNAc(b1-4)]Man(a1-3)[GlcNAc(b1-4)][Gal(b1-4)GlcNAc(b1-2)[Gal(b1-4)GlcNAc(b1-6)]Man(a1-6)]Man(b1-4)GlcNAc(b1-4)GlcNAc
# Outline: as §1
# [23] = molecular target: Gal(b1-4)GlcNAc(b1-2)[Gal(b1-4)GlcNAc(b1-6)]Man(a1-6)[Gal(b1-4)GlcNAc(b1-2)Man(a1-3)]Man(b1-4)GlcNAc(b1-4)GlcNAc
# Outline: as §1
# [24] = molecular target: Gal(b1-4)GlcNAc(b1-2)[Gal(b1-4)GlcNAc(b1-6)]Man(a1-6)[GlcNAc(b1-4)][Gal(b1-4)GlcNAc(b1-2)Man(a1-3)]Man(b1-4)GlcNAc(b1-4)GlcNAc
# Outline: as §1
# [25] = molecular target: Gal(b1-4)GlcNAc(b1-3)Gal(b1-3)GlcNAc
# Outline: as §1
# [26] = molecular target: Gal(b1-4)GlcNAc(b1-3)Gal(b1-4)Glc
# Outline: as §1
# [27] = molecular target: Gal(b1-4)GlcNAc(b1-3)Gal(b1-4)GlcNAc
# Outline: as §1
# [28] = molecular target: Gal(b1-4)GlcNAc(b1-3)Gal(b1-4)GlcNAc(b1-3)Gal(b1-4)GlcNAc
# Outline: as §1
# [29] = molecular target: Gal(b1-4)GlcNAc(b1-3)Gal(b1-4)[Fuc(a1-3)GlcNAc(b1-6)]Gal(b1-4)Glc
# Outline: as §1
# [30] = molecular target: Gal(b1-4)GlcNAc(b1-3)Gal(b1-4)[Fuc(a1-3)]GlcNAc(b1-3)Gal(b1-4)[Fuc(a1-3)]GlcNAc
# Outline: as §1
# [31] = molecular target: Gal(b1-4)GlcNAc(b1-3)GalNAc
# Outline: as §1
# [32] = molecular target: Gal(b1-4)GlcNAc(b1-3)[Gal(b1-4)GlcNAc(b1-6)]Gal(b1-4)GlcNAc
# Outline: as §1
binder,measurement,setting,value
"PGP3 (Chlamydia trachomatis), P0CE18 (protein) MGNSGFYLYNTQNCVFADNIKVGQMTEPLKDQQIILGTTSTPVAAKMTASDGISLTVSNNPSTNASITIGLDAEKAYQLILEKLGDQILGGIADTIVDSTVQDILDKITTDPSLGLLKAFNNFPITNKIQCNGLFTPRNIETLLGGTEIGKFTVTPKSSGSMFLVSADIIASRMEGGVVLALVREGDSKPYAISYGYSSGVPNLCSLRTRIINTGLTPTTYSLRVGGLESGVVWVNALSNGNDILGITNTSNVSFLEVIPQTNA",glycan array binding signal (z-score),[1],0.457
same,glycan array binding signal (z-score),[2],-0.395
same,glycan array binding signal (z-score),[3],0.242
same,glycan array binding signal (z-score),[4],-0.547
same,glycan array binding signal (z-score),[5],1.51
same,glycan array binding signal (z-score),[6],0.119
same,glycan array binding signal (z-score),Gal(b1-4)Gal,0.247
same,glycan array binding signal (z-score),[7],0.271
same,glycan array binding signal (z-score),[8],-0.442
same,glycan array binding signal (z-score),Gal(b1-4)Glc,-0.194
same,glycan array binding signal (z-score),Gal(b1-4)Glc6S,-0.713
same,glycan array binding signal (z-score),Gal(b1-4)GlcNAc,-0.548
same,glycan array binding signal (z-score),[9],0.562
same,glycan array binding signal (z-score),Gal(b1-4)GlcNAc(b1-2)Man,-0.69
same,glycan array binding signal (z-score),[10],0.214
same,glycan array binding signal (z-score),[11],-0.357
same,glycan array binding signal (z-score),[12],0.715
same,glycan array binding signal (z-score),[13],1.19
same,glycan array binding signal (z-score),[14],-0.296
same,glycan array binding signal (z-score),[15],0.121
same,glycan array binding signal (z-score),[16],-0.363
same,glycan array binding signal (z-score),[17],0.379
same,glycan array binding signal (z-score),[18],0.095
same,glycan array binding signal (z-score),[19],-1.24
same,glycan array binding signal (z-score),[20],-0.226
same,glycan array binding signal (z-score),[21],-1.51
same,glycan array binding signal (z-score),[22],-1.75
same,glycan array binding signal (z-score),[23],0.201
same,glycan array binding signal (z-score),[24],0.579
same,glycan array binding signal (z-score),[25],0.53
same,glycan array binding signal (z-score),[26],-0.67
same,glycan array binding signal (z-score),[27],-1.29
same,glycan array binding signal (z-score),[28],1.21
same,glycan array binding signal (z-score),[29],-0.022
same,glycan array binding signal (z-score),[30],0.322
same,glycan array binding signal (z-score),[31],-1.53
same,glycan array binding signal (z-score),[32],-0.365

# Shown with tabs: entries from further up
binder	measurement	setting	value
PGP3 (Chlamydia trachomatis), P0CE18 (protein) MGNSGFYLYNTQNCVFADNIKVGQMTEPLKDQQIILGTTSTPVAAKMTASDGISLTVSNNPSTNASITIGLDAEKAYQLILEKLGDQILGGIADTIVDSTVQDILDKITTDPSLGLLKAFNNFPITNKIQCNGLFTPRNIETLLGGTEIGKFTVTPKSSGSMFLVSADIIASRMEGGVVLALVREGDSKPYAISYGYSSGVPNLCSLRTRIINTGLTPTTYSLRVGGLESGVVWVNALSNGNDILGITNTSNVSFLEVIPQTNA	glycan array binding signal (z-score)	[6]	0.119
same	glycan array binding signal (z-score)	Gal(b1-4)Gal	0.247
